US20050112564A1 (published 2005)
No constants are given. Whether binding was seen depends on the method and setting. Some results given as binding are weak or reduced against the parent protein; the word gives no strength.

Chains of the proteins cited; added tags and fusions are not shown. Residues count along the entry.
UniProt P02701, residues 25-152: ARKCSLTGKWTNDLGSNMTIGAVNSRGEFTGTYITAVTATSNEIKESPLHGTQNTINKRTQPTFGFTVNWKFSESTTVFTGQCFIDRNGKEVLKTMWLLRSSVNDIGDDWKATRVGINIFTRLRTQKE

Target: T1, avidin (UniProt P02701 25-152)
T1 construct: also called avidin of a bar code 01
Test: FITC-peptide on avidin-coated bar-coded carriers; fluorescence read in flow tube

## ISFENTWLWHPQFSS (FITC at the amino-terminus) [FITC-labeled polypeptide of SEQ ID NO: 6 (15 amino acids containing avidin-binding peptide sequence)]
  binding: binds
